Assay results reported in doi:10.1101/2020.01.27.921122.
Like-named read-outs stand apart in the source and are kept apart here. No constants are given. Whether binding was seen depends on the method and setting. In cells and extracts the contact can be indirect. Some results given as binding are weak or reduced against the parent protein; the word gives no strength. For some of these results: Tags and fused reporters may be left off the sequences shown.

Sequences of proteins named here, by UniProt entry; tags and fusion partners are left off.
UniProt O88879: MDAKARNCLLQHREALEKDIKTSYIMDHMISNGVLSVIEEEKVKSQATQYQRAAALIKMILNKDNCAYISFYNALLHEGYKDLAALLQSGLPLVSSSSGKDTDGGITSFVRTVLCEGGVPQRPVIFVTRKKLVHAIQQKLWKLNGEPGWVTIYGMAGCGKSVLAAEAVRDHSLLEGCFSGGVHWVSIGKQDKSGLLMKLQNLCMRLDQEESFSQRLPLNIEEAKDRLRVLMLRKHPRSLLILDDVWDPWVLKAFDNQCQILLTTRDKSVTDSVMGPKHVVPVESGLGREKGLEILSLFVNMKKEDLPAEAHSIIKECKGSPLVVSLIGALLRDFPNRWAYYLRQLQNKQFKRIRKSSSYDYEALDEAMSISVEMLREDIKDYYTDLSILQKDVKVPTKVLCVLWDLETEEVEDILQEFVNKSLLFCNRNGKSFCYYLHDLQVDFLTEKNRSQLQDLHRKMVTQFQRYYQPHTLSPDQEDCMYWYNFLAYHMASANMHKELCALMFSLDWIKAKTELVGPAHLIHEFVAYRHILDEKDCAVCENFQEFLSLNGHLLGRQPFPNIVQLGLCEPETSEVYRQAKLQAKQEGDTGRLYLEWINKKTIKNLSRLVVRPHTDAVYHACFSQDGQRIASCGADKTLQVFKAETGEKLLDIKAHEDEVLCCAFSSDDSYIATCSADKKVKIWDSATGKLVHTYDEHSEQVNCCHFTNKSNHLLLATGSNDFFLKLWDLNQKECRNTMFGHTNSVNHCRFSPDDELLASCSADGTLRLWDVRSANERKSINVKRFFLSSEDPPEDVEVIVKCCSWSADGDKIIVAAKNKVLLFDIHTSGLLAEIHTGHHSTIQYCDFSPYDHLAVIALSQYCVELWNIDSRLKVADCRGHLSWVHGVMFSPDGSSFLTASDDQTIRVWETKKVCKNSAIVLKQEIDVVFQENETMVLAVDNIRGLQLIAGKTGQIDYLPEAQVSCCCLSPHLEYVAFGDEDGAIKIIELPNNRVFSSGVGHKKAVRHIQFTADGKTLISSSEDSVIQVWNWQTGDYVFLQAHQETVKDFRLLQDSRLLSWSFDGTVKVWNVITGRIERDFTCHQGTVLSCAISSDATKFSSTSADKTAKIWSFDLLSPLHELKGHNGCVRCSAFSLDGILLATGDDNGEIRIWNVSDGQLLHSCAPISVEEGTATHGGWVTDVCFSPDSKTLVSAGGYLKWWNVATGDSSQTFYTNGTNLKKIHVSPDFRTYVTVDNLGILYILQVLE
UniProt O14727: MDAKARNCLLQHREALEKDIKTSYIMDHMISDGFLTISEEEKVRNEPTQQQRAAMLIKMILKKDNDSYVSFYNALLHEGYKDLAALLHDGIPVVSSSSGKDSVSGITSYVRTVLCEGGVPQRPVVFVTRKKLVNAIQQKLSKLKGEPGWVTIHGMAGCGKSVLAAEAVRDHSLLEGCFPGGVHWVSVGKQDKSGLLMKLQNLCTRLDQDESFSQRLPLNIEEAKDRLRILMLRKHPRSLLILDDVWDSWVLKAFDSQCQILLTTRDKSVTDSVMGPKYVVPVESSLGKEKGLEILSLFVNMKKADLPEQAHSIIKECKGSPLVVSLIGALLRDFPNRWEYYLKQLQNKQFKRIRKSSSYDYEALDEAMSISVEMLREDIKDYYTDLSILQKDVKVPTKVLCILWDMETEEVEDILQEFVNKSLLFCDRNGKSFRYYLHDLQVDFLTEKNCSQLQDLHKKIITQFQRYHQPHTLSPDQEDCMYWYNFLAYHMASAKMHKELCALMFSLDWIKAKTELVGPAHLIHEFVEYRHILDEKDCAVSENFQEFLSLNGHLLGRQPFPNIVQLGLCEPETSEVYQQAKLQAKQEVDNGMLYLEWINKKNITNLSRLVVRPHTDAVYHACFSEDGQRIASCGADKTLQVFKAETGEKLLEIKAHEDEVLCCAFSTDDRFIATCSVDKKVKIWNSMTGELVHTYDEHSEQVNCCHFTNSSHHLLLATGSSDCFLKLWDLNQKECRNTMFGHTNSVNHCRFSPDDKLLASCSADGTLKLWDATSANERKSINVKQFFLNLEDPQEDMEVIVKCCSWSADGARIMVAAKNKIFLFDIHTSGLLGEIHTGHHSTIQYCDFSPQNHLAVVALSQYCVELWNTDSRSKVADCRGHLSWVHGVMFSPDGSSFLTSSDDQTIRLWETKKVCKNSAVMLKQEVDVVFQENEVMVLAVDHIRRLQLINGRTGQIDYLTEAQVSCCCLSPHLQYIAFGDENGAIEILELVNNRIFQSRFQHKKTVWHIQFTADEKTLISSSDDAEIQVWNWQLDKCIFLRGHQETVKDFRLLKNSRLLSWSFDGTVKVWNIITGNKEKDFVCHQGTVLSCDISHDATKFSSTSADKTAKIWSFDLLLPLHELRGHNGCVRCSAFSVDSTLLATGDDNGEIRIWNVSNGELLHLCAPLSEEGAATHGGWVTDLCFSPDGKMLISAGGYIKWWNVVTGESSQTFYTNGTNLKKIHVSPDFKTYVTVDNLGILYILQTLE
UniProt P55211: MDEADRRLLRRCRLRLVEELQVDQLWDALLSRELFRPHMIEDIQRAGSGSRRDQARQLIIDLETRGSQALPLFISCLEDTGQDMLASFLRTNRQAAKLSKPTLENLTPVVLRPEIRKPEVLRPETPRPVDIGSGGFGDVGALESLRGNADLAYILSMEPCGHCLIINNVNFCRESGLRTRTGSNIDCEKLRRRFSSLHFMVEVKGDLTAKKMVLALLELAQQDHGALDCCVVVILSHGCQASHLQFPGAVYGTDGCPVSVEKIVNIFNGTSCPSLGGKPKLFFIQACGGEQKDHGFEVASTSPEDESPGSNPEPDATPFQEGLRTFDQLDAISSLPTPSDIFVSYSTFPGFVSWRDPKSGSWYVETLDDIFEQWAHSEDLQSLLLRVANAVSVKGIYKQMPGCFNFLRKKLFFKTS

Experiments:
[1] = molecular target: T1, pro-caspase-11 (mouse (endogenous in BMDMs and liver)) (UniProt P70343); test: co-IP
T1 sequence: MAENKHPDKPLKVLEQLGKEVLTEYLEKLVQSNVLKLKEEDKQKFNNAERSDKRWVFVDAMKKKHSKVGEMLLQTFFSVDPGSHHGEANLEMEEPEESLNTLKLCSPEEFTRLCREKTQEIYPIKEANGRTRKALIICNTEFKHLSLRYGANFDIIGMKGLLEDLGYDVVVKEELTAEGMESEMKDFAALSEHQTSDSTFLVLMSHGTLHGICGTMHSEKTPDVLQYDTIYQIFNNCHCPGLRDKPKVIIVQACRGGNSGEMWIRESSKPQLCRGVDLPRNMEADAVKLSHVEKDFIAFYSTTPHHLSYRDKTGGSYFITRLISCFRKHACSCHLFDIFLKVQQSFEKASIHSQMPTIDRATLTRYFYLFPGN

[2] = molecular target: T1, pro-caspase-11 (mouse (endogenous in BMDMs and liver)); test: co-IP; remark: listed apart in the source
[3] = molecular target: T2, pro-caspase-4-His (human) (UniProt P49662); test: pull-down
T2 sequence: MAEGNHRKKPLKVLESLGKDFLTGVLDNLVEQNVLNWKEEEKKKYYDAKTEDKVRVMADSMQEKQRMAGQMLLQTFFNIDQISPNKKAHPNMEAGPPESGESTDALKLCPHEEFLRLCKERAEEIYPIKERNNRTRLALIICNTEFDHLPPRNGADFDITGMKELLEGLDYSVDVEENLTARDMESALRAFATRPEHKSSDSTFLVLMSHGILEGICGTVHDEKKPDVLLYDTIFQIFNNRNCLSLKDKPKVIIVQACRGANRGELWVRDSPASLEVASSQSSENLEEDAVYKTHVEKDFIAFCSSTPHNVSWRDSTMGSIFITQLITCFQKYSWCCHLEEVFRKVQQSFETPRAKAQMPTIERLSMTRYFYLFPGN

binding [1] | binding [2] | binding [3] | Substance
binds | binds |  | Apaf-1 (from UniProt O88879 1-1249)
 |  | binds | endogenous Apaf-1 (from UniProt O14727 1-1248)
 |  | no binding | endogenous pro-caspase-9 (from UniProt P55211 1-416)
